For four substances, binding results are on record in paper PMC6005158.

Sequences of proteins named here, by UniProt entry; tags and fusion partners are left off. A change or cut given only in a name is not applied to a line headed by its entry. A line that says so, or that is headed by a name, gives the form on record, which may keep a tag or linker.
DrDDX41-(ΔC + ΔHELICc) (1–411 amino acids, lacking C-terminal region and HELICc domain), Flag-tagged (A0AC58H8X8, form named): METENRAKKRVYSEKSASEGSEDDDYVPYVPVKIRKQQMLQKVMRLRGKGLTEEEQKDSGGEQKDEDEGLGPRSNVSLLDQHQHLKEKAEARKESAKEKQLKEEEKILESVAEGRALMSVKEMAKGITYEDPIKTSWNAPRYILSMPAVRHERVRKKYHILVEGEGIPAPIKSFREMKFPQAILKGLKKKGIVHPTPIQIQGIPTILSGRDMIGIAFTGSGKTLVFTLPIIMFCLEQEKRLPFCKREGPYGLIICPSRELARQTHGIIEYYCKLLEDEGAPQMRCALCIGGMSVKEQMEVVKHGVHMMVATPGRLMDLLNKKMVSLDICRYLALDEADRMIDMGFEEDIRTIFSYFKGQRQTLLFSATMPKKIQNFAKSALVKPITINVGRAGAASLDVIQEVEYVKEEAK
DrDDX41-(ΔN + ΔDEADc) (412–613 amino acids, lacking N-terminal region and DEADc domain), Flag-tagged (A0AC58H8X8, form named): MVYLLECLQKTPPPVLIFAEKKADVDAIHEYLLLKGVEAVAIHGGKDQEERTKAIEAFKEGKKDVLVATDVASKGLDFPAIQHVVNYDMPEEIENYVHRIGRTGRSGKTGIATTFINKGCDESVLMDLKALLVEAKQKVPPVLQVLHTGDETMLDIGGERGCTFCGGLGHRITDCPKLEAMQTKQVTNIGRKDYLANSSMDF
DrDDX41-ΔC (1–558 amino acids, lacking C-terminal region), Flag-tagged (A0AC58H8X8, form named): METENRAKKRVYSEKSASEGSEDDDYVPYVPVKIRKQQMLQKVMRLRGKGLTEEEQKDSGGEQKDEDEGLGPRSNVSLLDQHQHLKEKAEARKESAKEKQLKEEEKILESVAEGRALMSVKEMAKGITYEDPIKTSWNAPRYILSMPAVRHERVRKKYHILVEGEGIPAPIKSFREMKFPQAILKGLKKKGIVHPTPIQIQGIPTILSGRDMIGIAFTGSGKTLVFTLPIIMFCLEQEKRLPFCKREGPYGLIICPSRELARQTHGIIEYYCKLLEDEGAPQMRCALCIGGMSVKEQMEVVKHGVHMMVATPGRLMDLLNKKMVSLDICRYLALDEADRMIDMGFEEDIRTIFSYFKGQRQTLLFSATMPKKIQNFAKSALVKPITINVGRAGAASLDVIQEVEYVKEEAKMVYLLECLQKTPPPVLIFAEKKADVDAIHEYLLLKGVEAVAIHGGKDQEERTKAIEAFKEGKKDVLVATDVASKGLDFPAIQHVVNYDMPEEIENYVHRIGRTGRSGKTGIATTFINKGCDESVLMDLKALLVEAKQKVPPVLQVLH
DrDDX41-ΔN (177–613 amino acids, lacking N-terminal region), Flag-tagged (A0AC58H8X8, form named): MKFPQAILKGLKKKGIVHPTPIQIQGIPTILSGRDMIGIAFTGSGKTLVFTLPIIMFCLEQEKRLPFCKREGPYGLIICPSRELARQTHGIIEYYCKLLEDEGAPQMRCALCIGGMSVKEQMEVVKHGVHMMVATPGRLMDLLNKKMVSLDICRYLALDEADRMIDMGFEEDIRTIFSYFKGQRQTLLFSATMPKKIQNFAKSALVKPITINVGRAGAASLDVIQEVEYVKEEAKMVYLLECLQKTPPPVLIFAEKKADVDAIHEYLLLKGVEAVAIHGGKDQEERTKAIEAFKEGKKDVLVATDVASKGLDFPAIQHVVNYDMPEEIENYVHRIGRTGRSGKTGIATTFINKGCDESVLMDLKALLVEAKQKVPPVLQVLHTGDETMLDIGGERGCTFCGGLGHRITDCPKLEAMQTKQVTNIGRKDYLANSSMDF

Results are given in words; binding and its absence hold for the method and conditions named. In cells and extracts the contact can be indirect. Some binding calls cover weakened binding; strength is not graded here. Sequences can lack the tags named with a protein.

The experiment has as its target T1, Danio rerio STING (DrSTING), Myc-tagged (zebrafish (Danio rerio)) (UniProt E7F4N7).
T1 sequence: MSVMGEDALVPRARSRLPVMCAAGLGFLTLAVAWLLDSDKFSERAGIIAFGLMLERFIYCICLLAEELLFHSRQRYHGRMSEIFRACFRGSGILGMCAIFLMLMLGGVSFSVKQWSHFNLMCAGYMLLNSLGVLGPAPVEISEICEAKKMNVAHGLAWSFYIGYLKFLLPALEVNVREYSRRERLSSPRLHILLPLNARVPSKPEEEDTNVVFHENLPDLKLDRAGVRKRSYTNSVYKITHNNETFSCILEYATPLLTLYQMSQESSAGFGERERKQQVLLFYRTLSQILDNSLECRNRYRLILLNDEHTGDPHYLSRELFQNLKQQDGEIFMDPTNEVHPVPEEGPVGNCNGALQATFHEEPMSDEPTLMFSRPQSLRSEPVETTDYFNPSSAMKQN
The experiment is described as follows: co-IP; HEK293T co-transfected with Flag-DrDDX41 or its mutants and Myc-DrSTING (1:1) for 24 h, with or without poly(dA:dT) (1 µg/mL, 6 h); lysis in 20 mM Tris-HCl pH 7.5, 150 mM NaCl, 1 mM EDTA, 1% Triton X-100; lysates immunoprecipitated with anti-Myc mAb and protein A-agarose, blotted with anti-Flag and anti-Myc.
With “DrDDX41-(ΔC + ΔHELICc) (1–411 amino acids, lacking C-terminal region and HELICc domain), Flag-tagged (from UniProt A0AC58H8X8 1-411) (domain or fragment)”, the binding entry was “binds”.

Take “DrDDX41-(ΔN + ΔDEADc) (412–613 amino acids, lacking N-terminal region and DEADc domain), Flag-tagged (from UniProt A0AC58H8X8 412-613) (domain or fragment)”: the binding result is “no binding”.

Turning to “DrDDX41-ΔC (1–558 amino acids, lacking C-terminal region), Flag-tagged (from UniProt A0AC58H8X8 1-558) (domain or fragment)”, the binding entry is reported as “binds”.

For the substance “DrDDX41-ΔN (177–613 amino acids, lacking N-terminal region), Flag-tagged (from UniProt A0AC58H8X8 177-613) (domain or fragment)”, the binding entry is listed as “binds”.
